The results in this text go back to PMC3460628.

By UniProt entry, the sequences of proteins in these tests, tags left out. Residues count along the entry.
UniProt Q07737, residues 71-278: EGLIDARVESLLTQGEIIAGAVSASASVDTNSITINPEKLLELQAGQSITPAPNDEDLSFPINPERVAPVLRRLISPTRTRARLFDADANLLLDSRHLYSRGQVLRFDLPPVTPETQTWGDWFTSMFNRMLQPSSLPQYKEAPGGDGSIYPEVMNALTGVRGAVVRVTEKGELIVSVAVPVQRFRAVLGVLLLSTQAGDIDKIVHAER

The test deals with periplasmic domain of ChvG (71-278 a.a.) (Agrobacterium tumefaciens) (UniProt Q07737). Put plainly: two-hybrid; Matchmaker system (Clontech), S. cerevisiae AH109; ChvG periplasmic domain in pGBKT7, ExoR proteins fused to the activation domain in pGADT7; positive interaction read as growth on SD-WLHA medium at 30°C for at least 2 days.

No constants are given. Whether binding was seen depends on the method and setting. Some entries that bind do so weakly or less than the wild type.

On to “wild-type ExoR (from UniProt A0A822UYI5 1-264)”, for which the binding entry is “binds”.
